For the test, the target named is 3xHA-Runx2 (UniProt Q08775). Nature of the test: co-IP; 293T cells co-transfected with 3xHA-Runx2 with or without Flag-PADI2, cultured 3 days; lysate immunoprecipitated with anti-HA antibody and protein G-conjugated magnetic beads; immunoblot. In general terms: A western blot detects proteins with antibodies after separation by electrophoresis.

Sequences of proteins named here, by UniProt entry; tags and fusion partners are left off. A change or cut given only in a name is not applied to a line headed by its entry.
UniProt Q08775: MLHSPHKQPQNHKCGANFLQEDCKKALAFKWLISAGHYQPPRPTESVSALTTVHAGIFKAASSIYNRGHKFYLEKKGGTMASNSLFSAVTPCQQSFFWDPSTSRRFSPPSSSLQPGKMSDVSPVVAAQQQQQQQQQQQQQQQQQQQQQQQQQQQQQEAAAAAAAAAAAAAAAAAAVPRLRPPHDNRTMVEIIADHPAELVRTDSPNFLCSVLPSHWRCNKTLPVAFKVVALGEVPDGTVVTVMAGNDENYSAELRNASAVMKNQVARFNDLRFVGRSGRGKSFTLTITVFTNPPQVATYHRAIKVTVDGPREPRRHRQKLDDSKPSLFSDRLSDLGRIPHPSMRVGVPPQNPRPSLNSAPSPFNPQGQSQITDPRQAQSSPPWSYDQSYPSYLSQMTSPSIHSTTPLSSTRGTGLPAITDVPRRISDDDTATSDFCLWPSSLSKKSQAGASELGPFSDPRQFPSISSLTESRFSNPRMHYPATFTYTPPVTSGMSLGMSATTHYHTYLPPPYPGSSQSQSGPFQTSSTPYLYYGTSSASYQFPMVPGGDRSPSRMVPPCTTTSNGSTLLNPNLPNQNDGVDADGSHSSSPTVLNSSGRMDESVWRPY
UniProt Q9Y2J8: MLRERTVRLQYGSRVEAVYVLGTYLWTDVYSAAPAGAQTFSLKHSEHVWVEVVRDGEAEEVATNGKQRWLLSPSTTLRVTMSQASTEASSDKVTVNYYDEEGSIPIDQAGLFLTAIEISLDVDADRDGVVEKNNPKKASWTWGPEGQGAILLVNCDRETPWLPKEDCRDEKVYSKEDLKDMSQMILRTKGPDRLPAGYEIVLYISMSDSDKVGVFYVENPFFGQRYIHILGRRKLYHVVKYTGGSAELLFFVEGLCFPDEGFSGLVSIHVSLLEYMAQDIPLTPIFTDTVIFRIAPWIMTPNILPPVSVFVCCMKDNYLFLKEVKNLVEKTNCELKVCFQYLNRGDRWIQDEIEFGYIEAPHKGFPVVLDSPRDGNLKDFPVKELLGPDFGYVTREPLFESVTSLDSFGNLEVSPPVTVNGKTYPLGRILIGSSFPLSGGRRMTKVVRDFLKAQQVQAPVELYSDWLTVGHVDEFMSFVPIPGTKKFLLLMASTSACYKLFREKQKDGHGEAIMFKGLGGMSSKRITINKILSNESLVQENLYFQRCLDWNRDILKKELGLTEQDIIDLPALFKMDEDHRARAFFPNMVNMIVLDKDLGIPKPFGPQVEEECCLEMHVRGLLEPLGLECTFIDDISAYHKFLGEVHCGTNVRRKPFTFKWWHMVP

No constants are given. Whether binding was seen depends on the method and setting. Binding seen in cells or lysates may run through a third protein. Binding calls can cover weak binding; strength is not graded here.

Consider “Flag-PADI2 (from UniProt Q9Y2J8 1-665) (enzyme)”, for which the binding result is “binds”.

The record behind these values is PMC10468518.
